Results are given in words; binding and its absence hold for the method and conditions named. Binding seen in cells or lysates may run through a third protein. Some binding calls cover weakened binding; strength is not graded here.
Target: TMPRSS2 (human (endogenous in Beas-2B)) (UniProt O15393)
Assay: proximity ligation; Duolink proximity ligation assay in Beas-2B cells fixed with 4% paraformaldehyde and permeabilised with 0.5% Triton-X-100; anti-TMPRSS2 and anti-DCAF1 antibodies overnight; controls with antibody removal; confocal imaging

By UniProt entry, the sequences of proteins in these tests, tags left out.
UniProt O15393: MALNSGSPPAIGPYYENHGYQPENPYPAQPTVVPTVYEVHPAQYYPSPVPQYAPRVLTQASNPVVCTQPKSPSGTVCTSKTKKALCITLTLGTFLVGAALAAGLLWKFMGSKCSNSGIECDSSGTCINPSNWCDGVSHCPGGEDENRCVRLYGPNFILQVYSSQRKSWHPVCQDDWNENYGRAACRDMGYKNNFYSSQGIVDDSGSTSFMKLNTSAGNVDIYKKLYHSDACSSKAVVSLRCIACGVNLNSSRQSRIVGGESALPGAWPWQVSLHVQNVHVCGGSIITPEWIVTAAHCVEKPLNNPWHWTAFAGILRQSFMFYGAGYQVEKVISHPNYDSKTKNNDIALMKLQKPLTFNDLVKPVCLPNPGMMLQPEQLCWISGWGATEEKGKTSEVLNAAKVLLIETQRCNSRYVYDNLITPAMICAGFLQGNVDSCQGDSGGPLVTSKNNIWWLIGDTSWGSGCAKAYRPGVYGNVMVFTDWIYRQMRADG
UniProt Q9Y4B6: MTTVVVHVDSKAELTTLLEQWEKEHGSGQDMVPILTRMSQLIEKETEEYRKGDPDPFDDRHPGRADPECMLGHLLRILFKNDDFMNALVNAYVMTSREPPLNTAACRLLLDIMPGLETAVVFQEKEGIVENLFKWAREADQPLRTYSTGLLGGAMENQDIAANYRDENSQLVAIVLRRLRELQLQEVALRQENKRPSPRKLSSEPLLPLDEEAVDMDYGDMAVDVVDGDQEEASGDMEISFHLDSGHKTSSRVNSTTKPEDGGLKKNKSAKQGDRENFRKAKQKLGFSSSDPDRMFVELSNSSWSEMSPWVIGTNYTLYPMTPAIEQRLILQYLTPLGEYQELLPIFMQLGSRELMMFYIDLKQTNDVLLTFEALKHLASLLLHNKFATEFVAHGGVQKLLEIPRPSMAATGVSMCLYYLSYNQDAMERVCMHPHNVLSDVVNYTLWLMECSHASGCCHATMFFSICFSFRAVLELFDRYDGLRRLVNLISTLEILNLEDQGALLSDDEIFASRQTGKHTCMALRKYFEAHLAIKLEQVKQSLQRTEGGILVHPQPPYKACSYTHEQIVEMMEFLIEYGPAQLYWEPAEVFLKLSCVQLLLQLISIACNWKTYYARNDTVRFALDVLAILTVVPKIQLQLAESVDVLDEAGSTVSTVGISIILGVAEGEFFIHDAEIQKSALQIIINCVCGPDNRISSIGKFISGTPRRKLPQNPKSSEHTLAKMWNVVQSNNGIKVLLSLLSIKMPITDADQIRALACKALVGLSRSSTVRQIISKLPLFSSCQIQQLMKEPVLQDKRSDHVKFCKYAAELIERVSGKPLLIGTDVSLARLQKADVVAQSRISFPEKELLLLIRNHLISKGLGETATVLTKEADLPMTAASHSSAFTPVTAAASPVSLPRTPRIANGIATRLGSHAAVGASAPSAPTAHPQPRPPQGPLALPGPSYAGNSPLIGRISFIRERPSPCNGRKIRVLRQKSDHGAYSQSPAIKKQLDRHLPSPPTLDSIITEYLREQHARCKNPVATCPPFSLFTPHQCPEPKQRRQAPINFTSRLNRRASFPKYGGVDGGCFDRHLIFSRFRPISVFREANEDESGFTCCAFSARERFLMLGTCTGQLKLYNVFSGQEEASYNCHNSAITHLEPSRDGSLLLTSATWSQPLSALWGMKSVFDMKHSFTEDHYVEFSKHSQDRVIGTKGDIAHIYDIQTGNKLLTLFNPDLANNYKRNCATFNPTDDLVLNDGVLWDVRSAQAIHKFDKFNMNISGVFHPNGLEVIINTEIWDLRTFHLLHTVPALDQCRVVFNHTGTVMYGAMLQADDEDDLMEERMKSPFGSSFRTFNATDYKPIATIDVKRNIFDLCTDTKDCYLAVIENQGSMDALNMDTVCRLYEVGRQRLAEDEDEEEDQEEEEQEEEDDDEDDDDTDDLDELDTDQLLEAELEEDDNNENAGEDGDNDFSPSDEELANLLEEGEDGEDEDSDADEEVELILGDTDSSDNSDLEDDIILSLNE

binding: binds
Substance: DDB1- and CUL4-associated factor 1 (DCAF1) (from UniProt Q9Y4B6 1-1507)

Reference: article PMC8222394 (Nature Communications, 2021)
